Source: the supplement of paper PMC12024529
Where a name gives a salt, the structure may show the parent alone. Some of the results follow. Part of the spread comes from offsets between plates or batches.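 The cells are HEK293 lines stably expressing B-domain-deleted factor VIII fused to Gaussia luciferase, either wild type or a misfolding-prone missense mutant. Each score is mean luminescence from triplicate wells minus the DMSO mean, divided by the DMSO standard deviation; a score of 2 or more counts as a hit, and low scores may reflect lower secretion or poorer cell viability.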

Assays:
HEK293 WT BDD-FVIII-Gluc = assay: secreted FVIII-Gluc luciferase Z-score vs DMSO control; higher = more FVIII-Gluc secretion; details: 5 µM; 24 h
[1] = test system: HEK293 p.N1941S BDD-FVIII-Gluc; assay: as above; details: 5 µM; 24 h

| Compound | secreted FVIII-Gluc luciferase Z-score (HEK293 WT BDD-FVIII-Gluc) | secreted FVIII-Gluc luciferase Z-score [1] |
| --- | --- | --- |
| Cc1cc(C(C)(C)C)c(O)c(C)c1CC1=NCCN1 [Oxymetazoline hydrochloride] | active: 2.01 | inactive: -0.613 |
| CC(=O)O[C@]1(C(C)=O)CC[C@H]2[C@@H]3C=C(C)C4=CC(=O)CC[C@]4(C)[C@H]3CC[C@@]21C [Megestrol Acetate] | inactive: -3.23 | inactive: -3.18 |
| N=C(N)NC(=O)c1nc(Cl)c(N)nc1N [Amiloride hydrochloride (Midamor)] | inactive: -0.942 | inactive: 1.26 |
| CC(C)(C)C(=O)OCOP(=O)(COCCn1cnc2c(N)ncnc21)OCOC(=O)C(C)(C)C [Adefovir Dipivoxil (Preveon, Hepsera)] | inactive: -7.68 | inactive: -4.3 |
| CCOC(=O)[C@H](CCc1ccccc1)N[C@H]1CS[C@H](c2cccs2)CN(CC(=O)O)C1=O [Temocapril HCl] | inactive: -0.128 | inactive: 0.152 |
| O=C1c2ccccc2C(=O)C1c1ccccc1 [Phenindione (Rectadione)] | inactive: -1.7 | inactive: 0.863 |
| CCC[C@@H]1C[C@@H](C(=O)N[C@@H]([C@H]2O[C@H](SC)[C@H](O)[C@@H](O)[C@H]2O)[C@H](C)Cl)N(C)C1 [Clindamycin hydrochloride (Dalacin)] | inactive: -1.35 | inactive: -1.67 |
| C[C@@H](O[C@H]1OCCN(Cc2nn(P(=O)(O)O)c(=O)[nH]2)[C@H]1c1ccc(F)cc1)c1cc(C(F)(F)F)cc(C(F)(F)F)c1 [Fosaprepitant dimeglumine] | inactive: 0.00975 | inactive: -0.569 |
